# Test results: PMC5303877
# Key:
# Experiment in all cases: co-IP; Drosophila S2 cells co-transfected; lysis in 1% NP-40, 10 mM Tris-HCl pH 7.5, 50 mM NaCl buffer; Draper I-HA precipitated with rat anti-HA on Protein G beads at 4 °C overnight; TRAF4-myc detected by anti-myc western blot
# Draper-I-HA (Drosophila) = molecular target: T1, Draper-I-HA (Drosophila) (UniProt Q9W0A0)
# T1 sequence: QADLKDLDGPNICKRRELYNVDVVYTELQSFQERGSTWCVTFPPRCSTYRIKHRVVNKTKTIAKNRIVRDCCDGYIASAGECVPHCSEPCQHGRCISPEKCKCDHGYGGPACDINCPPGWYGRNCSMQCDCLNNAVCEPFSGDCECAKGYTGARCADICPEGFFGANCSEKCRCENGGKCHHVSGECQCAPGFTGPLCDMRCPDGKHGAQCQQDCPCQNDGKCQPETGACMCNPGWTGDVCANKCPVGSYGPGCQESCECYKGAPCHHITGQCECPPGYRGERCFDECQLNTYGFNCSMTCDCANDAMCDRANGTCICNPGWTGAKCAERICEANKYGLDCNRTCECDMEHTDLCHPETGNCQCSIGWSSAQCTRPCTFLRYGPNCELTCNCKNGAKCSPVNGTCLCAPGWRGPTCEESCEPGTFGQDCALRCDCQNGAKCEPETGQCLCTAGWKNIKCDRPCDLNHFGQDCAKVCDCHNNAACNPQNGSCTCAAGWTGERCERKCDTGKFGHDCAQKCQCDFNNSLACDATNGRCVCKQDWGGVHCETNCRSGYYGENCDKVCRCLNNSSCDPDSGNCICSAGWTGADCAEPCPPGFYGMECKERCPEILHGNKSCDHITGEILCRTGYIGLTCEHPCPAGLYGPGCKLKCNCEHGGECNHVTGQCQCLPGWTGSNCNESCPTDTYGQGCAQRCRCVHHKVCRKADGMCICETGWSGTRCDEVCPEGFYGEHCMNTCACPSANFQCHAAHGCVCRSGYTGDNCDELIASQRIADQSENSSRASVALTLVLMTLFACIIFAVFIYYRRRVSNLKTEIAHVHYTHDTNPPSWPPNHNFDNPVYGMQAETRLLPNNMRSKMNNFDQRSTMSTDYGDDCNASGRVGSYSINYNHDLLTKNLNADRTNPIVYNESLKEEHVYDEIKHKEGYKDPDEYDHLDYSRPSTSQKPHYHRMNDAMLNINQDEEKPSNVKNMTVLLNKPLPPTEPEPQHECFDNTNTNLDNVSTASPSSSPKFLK
# [1] = molecular target: T2, Draper I Δ826-854-HA (Drosophila) (UniProt Q9W0A0)
# T2 sequence: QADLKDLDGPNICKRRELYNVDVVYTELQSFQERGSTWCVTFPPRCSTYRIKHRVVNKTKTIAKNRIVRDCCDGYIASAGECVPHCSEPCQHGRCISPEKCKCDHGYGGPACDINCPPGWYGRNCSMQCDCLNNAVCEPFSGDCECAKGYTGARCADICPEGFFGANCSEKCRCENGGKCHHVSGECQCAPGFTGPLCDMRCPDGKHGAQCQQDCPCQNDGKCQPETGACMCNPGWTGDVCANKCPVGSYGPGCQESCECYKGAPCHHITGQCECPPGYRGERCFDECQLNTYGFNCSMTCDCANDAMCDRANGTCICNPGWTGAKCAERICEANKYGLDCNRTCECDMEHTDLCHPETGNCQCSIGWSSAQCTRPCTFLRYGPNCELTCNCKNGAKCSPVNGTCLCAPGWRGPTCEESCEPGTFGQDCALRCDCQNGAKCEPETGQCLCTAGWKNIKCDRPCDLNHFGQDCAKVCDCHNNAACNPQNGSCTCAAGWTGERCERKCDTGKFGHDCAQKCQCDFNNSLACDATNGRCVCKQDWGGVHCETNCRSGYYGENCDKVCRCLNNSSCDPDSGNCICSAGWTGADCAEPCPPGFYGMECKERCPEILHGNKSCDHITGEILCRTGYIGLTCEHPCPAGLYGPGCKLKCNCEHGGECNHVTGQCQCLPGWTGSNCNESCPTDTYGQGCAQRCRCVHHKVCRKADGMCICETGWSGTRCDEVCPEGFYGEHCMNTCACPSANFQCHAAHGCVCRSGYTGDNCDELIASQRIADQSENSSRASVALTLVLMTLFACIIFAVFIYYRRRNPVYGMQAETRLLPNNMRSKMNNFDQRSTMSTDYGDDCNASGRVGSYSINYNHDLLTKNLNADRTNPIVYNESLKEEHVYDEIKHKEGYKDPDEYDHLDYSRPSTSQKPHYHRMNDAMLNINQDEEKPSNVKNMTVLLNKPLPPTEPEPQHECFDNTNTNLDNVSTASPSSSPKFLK
# [2] = molecular target: T3, Draper I Δ855-894-HA (Drosophila) (UniProt Q9W0A0)
# T3 sequence: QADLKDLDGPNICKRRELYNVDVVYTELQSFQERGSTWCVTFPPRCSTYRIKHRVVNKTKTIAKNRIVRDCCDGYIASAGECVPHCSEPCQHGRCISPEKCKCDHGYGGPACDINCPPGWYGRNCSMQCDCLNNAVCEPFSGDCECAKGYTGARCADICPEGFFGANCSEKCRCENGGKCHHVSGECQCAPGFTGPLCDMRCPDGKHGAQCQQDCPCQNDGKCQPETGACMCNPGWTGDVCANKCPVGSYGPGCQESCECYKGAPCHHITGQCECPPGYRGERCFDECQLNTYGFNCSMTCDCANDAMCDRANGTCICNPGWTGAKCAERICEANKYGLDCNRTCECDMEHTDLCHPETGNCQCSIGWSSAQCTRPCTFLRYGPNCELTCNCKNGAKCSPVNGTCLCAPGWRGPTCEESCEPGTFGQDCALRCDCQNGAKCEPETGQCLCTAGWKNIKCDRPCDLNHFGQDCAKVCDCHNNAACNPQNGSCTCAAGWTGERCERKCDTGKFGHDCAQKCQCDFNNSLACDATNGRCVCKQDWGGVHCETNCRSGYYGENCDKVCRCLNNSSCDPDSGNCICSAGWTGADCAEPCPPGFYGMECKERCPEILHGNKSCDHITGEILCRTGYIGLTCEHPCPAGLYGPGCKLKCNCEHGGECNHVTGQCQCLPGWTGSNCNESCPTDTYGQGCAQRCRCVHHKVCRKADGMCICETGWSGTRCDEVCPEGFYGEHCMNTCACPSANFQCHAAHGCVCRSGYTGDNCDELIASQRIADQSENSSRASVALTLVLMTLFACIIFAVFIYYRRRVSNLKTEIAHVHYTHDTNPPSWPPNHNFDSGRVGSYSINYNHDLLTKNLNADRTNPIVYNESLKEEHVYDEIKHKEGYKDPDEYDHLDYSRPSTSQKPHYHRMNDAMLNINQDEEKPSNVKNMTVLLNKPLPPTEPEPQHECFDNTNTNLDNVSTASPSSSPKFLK
# [3] = molecular target: T4, Draper I Y949F-HA (Drosophila) (UniProt Q9W0A0)
# T4 sequence: T1 sequence with Y933F
binding (Draper-I-HA (Drosophila)),binding [1],binding [2],binding [3],Substance
no binding,,,,"C-terminal TRAF domain (TD) of TRAF4, myc-tagged (Drosophila) (domain or fragment)"
binds,binds,binds,binds,TRAF4-myc (from UniProt Q9XYR0)

# Substitutions are numbered along the chain they refer to. No constants are given. Whether binding was seen depends on the method and setting. Binding seen in cells or lysates may run through a third protein. Binding calls can cover weak binding; strength is not graded here. Tags and fused reporters may be left off the sequences shown.
